At least one structure is not confirmed: it was looked up by name or label, or the drawing left a doubt.
Tested on: hematopoietic stem/progenitor cells (CD34+ or CD133+)
Test: Ex vivo expansion of hematopoietic cells
Format: cell-based, human
Conditions: cultured with cytokines plus inhibitor, compared to cells cultured with cytokines alone
Experimental: Cell cultures of human hematopoietic cells: Human umbilical cord blood cells were obtained from umbilical cord blood after normal full-term delivery (informed consent was given). MPB, or BM were obtained from donations (informed consent was given). Samples were either used fresh or collected and frozen according to well known cord blood cryopreservation protocol (Rubinstein et al. 1995) within 24 hours postpartum for UCB or according to common practice regarding MPB and BM. Prior to cryopreservation, blood was sedimented for 30 minutes on […] Starch (hydroxyethyl starch) to remove most RBC. Prior to their use, the cells were thawed in Dextran buffer (Sigma, St. Louis, Mo., USA) containing 2.5% human serum albumin (HSA)(Bayer Corp. Elkhart, Ind., USA) and processed as described herein below. Following thawing, where indicated, the leukocyte-rich fraction was harvested and layered on Ficoll-Hypaque gradient (1.077 g/mL; Sigma Inc, St Louis Mo., USA), and centrifuged at 400×g for 30 minutes. The mononuclear cell fraction in the interface layer was then collected, washed three times, and re-suspended in phosphate-buffered saline (PBS) (Biological Industries, Bet HaEmek, Israel) containing 0.5% human serum albumin (HSA) (Bayer Corp. Elkhart, Ind., USA). […] The purity of the CD133^+ populations thus obtained was 80-95%, as evaluated by flow cytometry. […]

O=c1cc(N2CCOCC2)oc2c(-c3ccccc3)cccc12 [LY294002]
enrichment of stem/early progenitor cell subsets (CD34+CD38− and CD34+Lin−) in cultured population: enriched with subsets of stem/early progenitor cells
